# Some of the results follow.
# Amino acid sequences for entries named in this document (tags omitted). A change or cut given only in a name is not applied to a line headed by its entry.
# UniProt Q99828: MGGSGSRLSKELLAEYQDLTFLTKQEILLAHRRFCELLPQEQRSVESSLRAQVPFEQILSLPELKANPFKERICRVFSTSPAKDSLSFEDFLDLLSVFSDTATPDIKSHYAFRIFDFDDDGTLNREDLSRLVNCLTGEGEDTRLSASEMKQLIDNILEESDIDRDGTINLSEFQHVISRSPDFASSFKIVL
# UniProt O75390: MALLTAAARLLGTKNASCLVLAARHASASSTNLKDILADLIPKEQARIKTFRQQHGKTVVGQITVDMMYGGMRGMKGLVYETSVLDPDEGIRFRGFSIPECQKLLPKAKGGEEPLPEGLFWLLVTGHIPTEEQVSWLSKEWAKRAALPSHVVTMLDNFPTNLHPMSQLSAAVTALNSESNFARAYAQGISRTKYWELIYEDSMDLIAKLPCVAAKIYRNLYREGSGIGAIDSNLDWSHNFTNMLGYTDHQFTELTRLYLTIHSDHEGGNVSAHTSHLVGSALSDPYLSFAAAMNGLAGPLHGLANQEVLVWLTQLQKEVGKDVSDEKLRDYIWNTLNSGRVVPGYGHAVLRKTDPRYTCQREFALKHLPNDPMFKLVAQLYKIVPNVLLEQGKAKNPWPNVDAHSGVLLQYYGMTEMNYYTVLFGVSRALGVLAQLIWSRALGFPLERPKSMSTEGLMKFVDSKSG
# UniProt O75575: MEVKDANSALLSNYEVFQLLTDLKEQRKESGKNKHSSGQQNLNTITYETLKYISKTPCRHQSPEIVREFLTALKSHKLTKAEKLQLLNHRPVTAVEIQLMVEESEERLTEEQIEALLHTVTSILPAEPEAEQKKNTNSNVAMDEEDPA
# UniProt P35606: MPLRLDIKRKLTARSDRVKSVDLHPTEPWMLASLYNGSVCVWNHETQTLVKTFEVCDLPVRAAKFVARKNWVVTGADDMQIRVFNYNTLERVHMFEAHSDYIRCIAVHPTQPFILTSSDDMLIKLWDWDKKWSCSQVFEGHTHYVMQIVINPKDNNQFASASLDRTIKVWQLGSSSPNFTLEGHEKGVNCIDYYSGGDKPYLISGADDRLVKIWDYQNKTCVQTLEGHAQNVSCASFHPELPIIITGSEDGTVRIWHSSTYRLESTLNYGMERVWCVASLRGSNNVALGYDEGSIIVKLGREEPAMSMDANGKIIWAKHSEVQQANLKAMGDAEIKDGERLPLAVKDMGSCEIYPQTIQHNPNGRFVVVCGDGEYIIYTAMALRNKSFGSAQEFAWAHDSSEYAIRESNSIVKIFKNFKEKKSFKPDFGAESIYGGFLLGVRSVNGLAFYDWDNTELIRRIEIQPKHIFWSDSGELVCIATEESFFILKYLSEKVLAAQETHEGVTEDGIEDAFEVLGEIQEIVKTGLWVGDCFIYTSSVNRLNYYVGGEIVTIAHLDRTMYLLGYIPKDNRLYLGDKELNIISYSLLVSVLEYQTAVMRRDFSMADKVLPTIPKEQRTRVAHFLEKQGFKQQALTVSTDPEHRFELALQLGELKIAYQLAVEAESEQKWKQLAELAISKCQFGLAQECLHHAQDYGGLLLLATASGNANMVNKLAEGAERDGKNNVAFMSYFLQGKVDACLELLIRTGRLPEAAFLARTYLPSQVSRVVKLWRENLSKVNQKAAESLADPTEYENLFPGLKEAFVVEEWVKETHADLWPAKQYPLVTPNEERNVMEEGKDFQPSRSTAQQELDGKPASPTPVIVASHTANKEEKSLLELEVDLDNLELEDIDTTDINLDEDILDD
# UniProt Q96RK0: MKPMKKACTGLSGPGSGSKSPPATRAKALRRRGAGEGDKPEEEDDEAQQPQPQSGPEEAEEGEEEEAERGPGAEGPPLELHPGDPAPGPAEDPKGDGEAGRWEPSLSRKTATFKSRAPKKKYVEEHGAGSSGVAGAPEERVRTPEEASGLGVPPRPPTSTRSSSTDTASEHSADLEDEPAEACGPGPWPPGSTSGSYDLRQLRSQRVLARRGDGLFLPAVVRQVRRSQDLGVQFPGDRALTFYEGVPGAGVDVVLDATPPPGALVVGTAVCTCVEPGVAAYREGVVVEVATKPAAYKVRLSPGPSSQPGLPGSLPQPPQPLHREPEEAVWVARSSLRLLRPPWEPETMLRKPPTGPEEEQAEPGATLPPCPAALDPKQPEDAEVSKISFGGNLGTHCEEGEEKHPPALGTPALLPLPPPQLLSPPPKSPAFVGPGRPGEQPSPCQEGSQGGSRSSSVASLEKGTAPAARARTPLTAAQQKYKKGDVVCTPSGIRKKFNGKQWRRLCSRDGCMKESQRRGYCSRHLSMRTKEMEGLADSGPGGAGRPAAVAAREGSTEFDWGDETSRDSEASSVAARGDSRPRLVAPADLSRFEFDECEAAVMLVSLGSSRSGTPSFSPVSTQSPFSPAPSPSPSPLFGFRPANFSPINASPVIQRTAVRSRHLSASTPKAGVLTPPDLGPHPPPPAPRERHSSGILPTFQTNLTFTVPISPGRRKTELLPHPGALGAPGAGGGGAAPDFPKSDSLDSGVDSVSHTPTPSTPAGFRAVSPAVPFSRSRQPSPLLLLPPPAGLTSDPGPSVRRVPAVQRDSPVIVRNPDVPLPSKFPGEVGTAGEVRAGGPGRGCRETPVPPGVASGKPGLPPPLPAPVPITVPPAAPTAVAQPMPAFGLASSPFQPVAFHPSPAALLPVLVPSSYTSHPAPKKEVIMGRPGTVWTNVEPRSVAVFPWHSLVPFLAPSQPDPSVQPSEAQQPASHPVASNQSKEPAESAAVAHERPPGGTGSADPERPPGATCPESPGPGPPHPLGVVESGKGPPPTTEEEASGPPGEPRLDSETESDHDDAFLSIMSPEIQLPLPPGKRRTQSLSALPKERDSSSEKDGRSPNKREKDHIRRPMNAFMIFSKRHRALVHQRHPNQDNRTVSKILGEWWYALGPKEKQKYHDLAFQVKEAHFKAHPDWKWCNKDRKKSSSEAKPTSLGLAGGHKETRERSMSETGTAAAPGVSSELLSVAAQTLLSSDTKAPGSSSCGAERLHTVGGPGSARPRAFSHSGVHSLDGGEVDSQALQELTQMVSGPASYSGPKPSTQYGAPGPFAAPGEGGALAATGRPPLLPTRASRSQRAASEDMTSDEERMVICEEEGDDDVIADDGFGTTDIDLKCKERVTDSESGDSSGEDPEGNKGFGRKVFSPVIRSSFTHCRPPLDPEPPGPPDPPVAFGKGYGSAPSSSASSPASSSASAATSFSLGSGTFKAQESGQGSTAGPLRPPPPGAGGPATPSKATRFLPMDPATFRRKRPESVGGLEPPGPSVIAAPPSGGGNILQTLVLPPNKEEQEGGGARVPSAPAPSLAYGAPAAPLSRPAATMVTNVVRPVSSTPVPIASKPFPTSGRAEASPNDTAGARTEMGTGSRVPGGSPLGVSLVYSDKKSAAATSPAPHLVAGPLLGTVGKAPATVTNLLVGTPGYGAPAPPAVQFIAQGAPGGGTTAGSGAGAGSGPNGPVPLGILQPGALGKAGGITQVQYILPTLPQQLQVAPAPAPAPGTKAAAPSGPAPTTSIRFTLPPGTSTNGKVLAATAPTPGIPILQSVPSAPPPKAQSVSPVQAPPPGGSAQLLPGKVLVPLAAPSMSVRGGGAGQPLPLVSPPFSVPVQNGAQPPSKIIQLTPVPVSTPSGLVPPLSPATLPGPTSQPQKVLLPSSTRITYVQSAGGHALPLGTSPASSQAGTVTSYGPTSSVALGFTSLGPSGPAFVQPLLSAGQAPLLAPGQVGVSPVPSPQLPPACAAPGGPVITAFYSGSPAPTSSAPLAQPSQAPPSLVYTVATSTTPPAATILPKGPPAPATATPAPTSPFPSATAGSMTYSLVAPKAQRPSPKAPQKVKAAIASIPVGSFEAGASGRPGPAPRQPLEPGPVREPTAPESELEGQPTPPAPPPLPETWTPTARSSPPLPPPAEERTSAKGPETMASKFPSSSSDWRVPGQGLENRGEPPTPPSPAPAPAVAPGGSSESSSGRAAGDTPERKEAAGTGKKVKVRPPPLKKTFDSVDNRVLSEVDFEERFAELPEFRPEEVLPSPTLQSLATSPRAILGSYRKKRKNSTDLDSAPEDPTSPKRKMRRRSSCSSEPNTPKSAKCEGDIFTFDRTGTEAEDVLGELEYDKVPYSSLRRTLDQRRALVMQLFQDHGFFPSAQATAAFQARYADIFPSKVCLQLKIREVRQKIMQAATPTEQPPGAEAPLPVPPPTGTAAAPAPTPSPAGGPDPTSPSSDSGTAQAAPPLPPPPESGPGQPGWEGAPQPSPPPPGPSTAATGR
# UniProt Q96SZ6: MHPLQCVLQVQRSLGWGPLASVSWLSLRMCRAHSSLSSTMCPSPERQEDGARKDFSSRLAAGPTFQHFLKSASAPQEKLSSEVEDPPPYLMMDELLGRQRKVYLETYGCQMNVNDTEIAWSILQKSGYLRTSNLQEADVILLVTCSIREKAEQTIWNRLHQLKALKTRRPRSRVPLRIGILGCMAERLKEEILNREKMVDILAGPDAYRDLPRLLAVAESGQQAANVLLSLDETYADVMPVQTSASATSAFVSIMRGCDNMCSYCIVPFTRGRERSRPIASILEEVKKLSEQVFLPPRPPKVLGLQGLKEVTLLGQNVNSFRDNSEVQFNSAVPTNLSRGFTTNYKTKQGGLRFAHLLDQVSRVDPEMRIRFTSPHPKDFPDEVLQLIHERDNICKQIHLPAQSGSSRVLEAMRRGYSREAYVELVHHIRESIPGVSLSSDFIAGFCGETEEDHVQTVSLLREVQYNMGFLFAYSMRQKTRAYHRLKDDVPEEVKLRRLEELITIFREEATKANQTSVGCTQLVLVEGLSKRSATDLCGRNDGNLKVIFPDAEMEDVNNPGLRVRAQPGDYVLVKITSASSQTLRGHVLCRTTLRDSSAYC
# UniProt Q9NY35: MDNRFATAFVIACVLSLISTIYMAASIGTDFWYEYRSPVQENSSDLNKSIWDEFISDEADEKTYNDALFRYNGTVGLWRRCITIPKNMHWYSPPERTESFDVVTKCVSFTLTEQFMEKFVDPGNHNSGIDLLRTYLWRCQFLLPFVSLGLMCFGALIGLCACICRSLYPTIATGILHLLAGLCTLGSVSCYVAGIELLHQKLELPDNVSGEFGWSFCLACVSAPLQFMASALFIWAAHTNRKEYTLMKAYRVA
# UniProt P27701: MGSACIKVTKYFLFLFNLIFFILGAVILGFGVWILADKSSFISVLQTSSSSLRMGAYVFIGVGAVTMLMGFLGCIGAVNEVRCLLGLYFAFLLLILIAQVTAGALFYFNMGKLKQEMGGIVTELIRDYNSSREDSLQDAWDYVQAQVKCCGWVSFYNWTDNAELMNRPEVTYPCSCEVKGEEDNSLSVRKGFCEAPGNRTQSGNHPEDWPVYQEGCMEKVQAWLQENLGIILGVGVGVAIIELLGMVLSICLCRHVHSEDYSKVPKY
# UniProt P61923: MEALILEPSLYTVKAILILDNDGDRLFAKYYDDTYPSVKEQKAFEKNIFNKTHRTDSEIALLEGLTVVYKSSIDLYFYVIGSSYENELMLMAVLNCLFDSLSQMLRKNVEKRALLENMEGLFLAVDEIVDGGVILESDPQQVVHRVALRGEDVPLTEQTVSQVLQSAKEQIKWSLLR
# UniProt O95639, whole entry: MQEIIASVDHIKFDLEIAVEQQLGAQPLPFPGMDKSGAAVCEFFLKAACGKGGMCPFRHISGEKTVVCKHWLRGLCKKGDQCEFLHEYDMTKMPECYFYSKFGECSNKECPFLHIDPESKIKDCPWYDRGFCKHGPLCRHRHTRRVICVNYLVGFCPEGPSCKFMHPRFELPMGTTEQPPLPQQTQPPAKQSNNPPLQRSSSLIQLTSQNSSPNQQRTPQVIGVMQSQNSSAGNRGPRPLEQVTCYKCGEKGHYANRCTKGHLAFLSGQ
# UniProt P54105: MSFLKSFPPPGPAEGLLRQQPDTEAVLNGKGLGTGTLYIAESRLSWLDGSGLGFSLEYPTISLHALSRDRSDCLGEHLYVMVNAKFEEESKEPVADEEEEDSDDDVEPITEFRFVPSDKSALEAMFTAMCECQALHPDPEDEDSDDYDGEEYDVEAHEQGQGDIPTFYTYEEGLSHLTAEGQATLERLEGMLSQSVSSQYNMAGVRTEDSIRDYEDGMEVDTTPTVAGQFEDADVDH
# UniProt Q9BT09: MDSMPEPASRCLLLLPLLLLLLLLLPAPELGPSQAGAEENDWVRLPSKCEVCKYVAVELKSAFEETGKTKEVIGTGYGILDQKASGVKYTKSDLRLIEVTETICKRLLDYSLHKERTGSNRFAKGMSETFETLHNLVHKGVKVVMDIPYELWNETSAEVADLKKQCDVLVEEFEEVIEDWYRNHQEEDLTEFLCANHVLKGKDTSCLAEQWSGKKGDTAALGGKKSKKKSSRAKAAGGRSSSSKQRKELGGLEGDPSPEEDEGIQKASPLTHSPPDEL
# UniProt Q9NZZ3: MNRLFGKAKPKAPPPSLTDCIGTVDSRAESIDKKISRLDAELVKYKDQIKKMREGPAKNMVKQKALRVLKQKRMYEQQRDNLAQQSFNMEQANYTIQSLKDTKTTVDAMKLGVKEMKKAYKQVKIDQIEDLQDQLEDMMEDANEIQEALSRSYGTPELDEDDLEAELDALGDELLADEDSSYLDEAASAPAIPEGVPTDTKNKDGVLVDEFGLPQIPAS
# Compound: COc1ccc(Cn2ccc3cc(C)c(C(=O)NO)cc32)cc1
# Test: dose-dependent thermal stabilisation call (2D-TPP, DLPTP, 10% FDR) (binary (1 = stabilised)); higher = stabilised by the compound
# Conditions: system: HL-60 intact cells; concentration range 0.04-10 µM
# Procedure: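 2D thermal proteome profiling in intact HL-60 cells treated with BRD-3811 (0, 0.04, 0.29, 2, 10 uM) for 90 min at 37 C, then heated 3 min at one of 12 temperatures (42-63.9 C). Soluble protein was quantified by TMT10 MS. The value is the DLPTP call of the paper: dose-dependent thermal stabilisation over all temperatures at 10% FDR (F-test of a dose-response against a flat model); one experiment, one call per tested protein.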
row,Target,dose-dependent thermal stabilisation call
1,CLIP1 (UniProt P30622),inactive: 0
2,CD84 (UniProt Q9UIB8),inactive: 0
3,COG4 (UniProt Q9H9E3),inactive: 0
4,COG8 (UniProt Q96MW5),inactive: 0
5,CDK5 (UniProt Q00535),inactive: 0
6,CLC (UniProt Q05315),inactive: 0
7,CIB1 (UniProt Q99828),inactive: 0
8,CHAC2 (UniProt Q8WUX2),inactive: 0
9,CPT1A (UniProt P50416),inactive: 0
10,CD97 (UniProt P48960),inactive: 0
11,CDC25C (UniProt P30307),inactive: 0
12,CGGBP1 (UniProt Q9UFW8),inactive: 0
13,CHD8 (UniProt Q9HCK8),inactive: 0
14,CHCHD3 (UniProt Q9NX63),inactive: 0
15,CS (UniProt O75390),active: 1
16,CRCP (UniProt O75575),inactive: 0
17,COPB2 (UniProt P35606),inactive: 0
18,CEP135 (UniProt Q66GS9),inactive: 0
19,CIC (UniProt Q96RK0),inactive: 0
20,CDK5RAP1 (UniProt Q96SZ6),inactive: 0

row,Target,dose-dependent thermal stabilisation call
1,CDC73 (UniProt Q6P1J9),inactive: 0
2,CDC40 (UniProt O60508),inactive: 0
3,CLDND1 (UniProt Q9NY35),inactive: 0
4,CLEC16A (UniProt Q2KHT3),inactive: 0
5,CHST11 (UniProt Q9NPF2),inactive: 0
6,CHST10 (UniProt O43529),inactive: 0
7,CHMP4B (UniProt Q9H444),inactive: 0
8,CD82 (UniProt P27701),inactive: 0
9,COPZ1 (UniProt P61923),inactive: 0
10,COQ5 (UniProt Q5HYK3),inactive: 0
11,CPSF4 (UniProt O95639),inactive: 0
12,COX7A2 (UniProt P14406),inactive: 0
13,CLSPN (UniProt Q9HAW4),inactive: 0
14,CLNS1A (UniProt P54105),inactive: 0
15,CPSF3L (UniProt Q5TA45),inactive: 0
16,CNPY3 (UniProt Q9BT09),inactive: 0
17,CDK6 (UniProt Q00534),inactive: 0
18,CHMP7 (UniProt Q8WUX9),inactive: 0
19,CIT (UniProt O14578),inactive: 0
20,CHMP5 (UniProt Q9NZZ3),inactive: 0

# Single values from the entries so far.
# dose-dependent thermal stabilisation call, CHST10 (UniProt O43529) reads inactive: 0
# dose-dependent thermal stabilisation call, CHMP7 (UniProt Q8WUX9) reads inactive: 0

# Reference: the supplement of paper PMC7666118
